Reference: PMC12431657, “Discovery and mechanistic insights of dibenzoylmethane as a broad spectrum inhibitor of coronavirus” (PLOS Pathogens, 2025)
Counter-ions that a name gives are not always drawn. Like-named read-outs stand apart in the source and are kept apart here. In all, about 3,300 compounds went through this assay and about 95 (3%) showed an effect of 50% or more. The list shows a part of the results.

Test system: HCoV-229E
Set-up: species or system Huh-7; HTS, protection from HCoV-229E induced cell death, luminescent cell viability (CellCounting-Lite 2.0), inhibition rate
Conditions: 24 h post infection, 1 h compound pre-incubation, 10 µM, inhibitor

SMILES	229E Inhibition rate [%]	229E Inhibition rate (229E Inhibition rate, 24 h) [%]
O=C(O)c1ccc(O)cc1O [2,4-Dihydroxybenzoic acid]	7.4	
COc1cc(CCO[C@@H]2O[C@H](CO[C@@H]3O[C@H](CO)[C@@H](O)[C@H](O)[C@H]3O)[C@@H](OC(=O)/C=C/c3ccc(O)c(O)c3)[C@H](O[C@@H]3O[C@@H](C)[C@H](O)[C@@H](O)[C@H]3O)[C@H]2O)ccc1O [Cistanoside A]	10.3	
COc1cc(O)c2c(=O)cc(-c3ccccc3)oc2c1 [Tectochrysin]	15.9	
C[C@H](CCC(=O)NCC(=O)O)[C@H]1CC[C@H]2[C@@H]3CC[C@@H]4C[C@H](O)CC[C@]4(C)[C@H]3C[C@H](O)[C@]12C [Glycodeoxycholic Acid]		10.1
CC(C)C1=CC2=CC[C@@H]3[C@](C)(CCC[C@@]3(C)C(=O)O)[C@H]2CC1 [Abietic acid]	49.1	
C[C@@H]1O[C@@H](O[C@H]2[C@H](OC(=O)[C@]34CCC(C)(C)C[C@H]3C3=CC[C@@H]5[C@@]6(C)C[C@H](O)[C@@H]7O[C@@H]8O[C@H](CO)[C@@H](O)[C@H](O)[C@H]8O[C@@H]8OC[C@H](O)[C@H](O)[C@H]8OC(=O)C[C@@](C)(O)CC(=O)OC[C@@]7(C)[C@@H]6CC[C@@]5(C)[C@]3(C)CC4)OC[C@H](O)[C@@H]2O)[C@H](O)[C@H](O[C@@H]2OC[C@@H](O)[C@H](O)[C@H]2O)[C@H]1O [Tubeimoside I]	25.1	
CC(=O)O[C@]1(C)CC[C@@]23C[C@@H]1C(C)(C)[C@@H]2CC[C@H]3C [Cedryl acetate]	0	
C[C@@H]1CC[C@@]2(OC1)O[C@H]1C[C@H]3[C@@H]4CC=C5C[C@@H](O)C[C@@H](O[C@@H]6O[C@H](C)[C@H](O)[C@H](O[C@@H]7OC[C@@H](O)[C@H](O)[C@H]7O)[C@H]6O[C@@H]6O[C@H](CO)[C@@H](O)[C@H](O)[C@H]6O)[C@]5(C)[C@H]4CC[C@]3(C)[C@H]1[C@@H]2C [Saponin C, from Liriope muscari]	0	
COc1cc(O)c(CC=C(C)C)c(O)c1C(=O)/C=C/c1ccc(O)cc1 [Xanthohumol]	6.9	
O=c1c(-c2ccc(O)cc2)coc2c([C@@H]3O[C@H](CO)[C@@H](O)[C@H](O)[C@H]3O)c(O)ccc12 [Puerarin]	18.7	
C/C=C(/C)C(=O)O[C@@H]1c2c(ccc3ccc(=O)oc23)OC(C)(C)[C@@H]1OC(C)=O [Pteryxin]	4.8	
O=C1O[C@H]([C@@H](O)CO)C(O)=C1O [L-Ascorbic acid]		17.7
CC(C)=CCC/C(C)=C/CC/C(C)=C/CC/C(C)=C/CC/C(C)=C/CC/C(C)=C/CC/C(C)=C/CC/C(C)=C/CC/C(C)=C/CO [Solanesol]	12.2	
COC(=O)c1ccccc1C(=O)O [Monomethyl phthalate]	7.7	
COc1ccc([C@H]2OC[C@H]3[C@@H]2CO[C@H]3c2cc(OC)c(OC)c(OC)c2)cc1OC [Epimagnolin A]	17.9	
c1cc2c(cc1O[C@H]1OC[C@H]3[C@@H]1CO[C@@H]3c1ccc3c(c1)OCO3)OCO2 [Sesamolin]	62.2	
C[C@@H]1O[C@@H](O[C@H]2[C@H](O[C@H]3CC[C@@]4(C)[C@@H](CC[C@]5(C)[C@@H]4CC=C4[C@@H]6CC(C)(C)CC[C@]6(C(=O)O[C@@H]6O[C@H](CO[C@@H]7O[C@H](CO)[C@@H](O[C@@H]8O[C@@H](C)[C@H](O)[C@@H](O)[C@H]8O)[C@H](O)[C@H]7O)[C@@H](O)[C@H](O)[C@H]6O)CC[C@]45C)[C@]3(C)CO)OC[C@H](O)[C@@H]2O)[C@H](O)[C@H](O)[C@H]1O [Hederacoside C]	21	
C[C@@H]1CC[C@]2(C(=O)O)CC[C@]3(C)C(=CC[C@@H]4[C@@]5(C)CC[C@H](O)[C@](C)(C(=O)O)[C@@H]5CC[C@]43C)[C@@H]2[C@]1(C)O [Ilexgenin A]	10.2	
C/C=C1/CN2[C@@H]3C[C@@]45c6ccccc6N[C@]4(O3)[C@@H]2C[C@@H]1[C@H]5C(=O)OC [Picrinine]	51.7	
C[C@]12CC[C@@H]3c4ccc(O)cc4CC[C@H]3[C@@H]1CC[C@H]2O [Alpha-Estradiol]	18.2	
CCCCCCCCCC(=O)NCc1ccc(O)c(OC)c1 [N-Vanillyldecanamide]	0	
CCCCCCCCCCCCCCCCCCCCCCCCCCCCC [Nonacosane]	31.8	
Cc1cc(O)c2c(=O)c3c(O)cc(O)c4c5c(O)cc(O)c6c(=O)c7c(O)cc(C)c8c1c2c(c34)c(c78)c65 [Hypericin]	19.1	
CC(=O)O[C@H]1CC/C(C)=C/CC/C(C)=C/C[C@]2(C(C)C)CC[C@@]1(C)O2 [Incensole Acetate]	12.5	
CC(C)=CCNc1ncnc2nc[nH]c12 [6-(γ,γ-Dimethylallylamino)purine]	12.7	

Exported as a markdown table: 14 of the compounds above

| SMILES | 229E Inhibition rate [%] | 229E Inhibition rate (229E Inhibition rate, 24 h) [%] |
| --- | --- | --- |
| O=C(O)c1ccc(O)cc1O [2,4-Dihydroxybenzoic acid] | 7.4 |  |
| COc1cc(CCO[C@@H]2O[C@H](CO[C@@H]3O[C@H](CO)[C@@H](O)[C@H](O)[C@H]3O)[C@@H](OC(=O)/C=C/c3ccc(O)c(O)c3)[C@H](O[C@@H]3O[C@@H](C)[C@H](O)[C@@H](O)[C@H]3O)[C@H]2O)ccc1O [Cistanoside A] | 10.3 |  |
| COc1cc(O)c2c(=O)cc(-c3ccccc3)oc2c1 [Tectochrysin] | 15.9 |  |
| CC(C)C1=CC2=CC[C@@H]3[C@](C)(CCC[C@@]3(C)C(=O)O)[C@H]2CC1 [Abietic acid] | 49.1 |  |
| C[C@@H]1CC[C@@]2(OC1)O[C@H]1C[C@H]3[C@@H]4CC=C5C[C@@H](O)C[C@@H](O[C@@H]6O[C@H](C)[C@H](O)[C@H](O[C@@H]7OC[C@@H](O)[C@H](O)[C@H]7O)[C@H]6O[C@@H]6O[C@H](CO)[C@@H](O)[C@H](O)[C@H]6O)[C@]5(C)[C@H]4CC[C@]3(C)[C@H]1[C@@H]2C [Saponin C, from Liriope muscari] | 0 |  |
| COc1cc(O)c(CC=C(C)C)c(O)c1C(=O)/C=C/c1ccc(O)cc1 [Xanthohumol] | 6.9 |  |
| O=C1O[C@H]([C@@H](O)CO)C(O)=C1O [L-Ascorbic acid] |  | 17.7 |
| CC(C)=CCC/C(C)=C/CC/C(C)=C/CC/C(C)=C/CC/C(C)=C/CC/C(C)=C/CC/C(C)=C/CC/C(C)=C/CC/C(C)=C/CO [Solanesol] | 12.2 |  |
| COC(=O)c1ccccc1C(=O)O [Monomethyl phthalate] | 7.7 |  |
| c1cc2c(cc1O[C@H]1OC[C@H]3[C@@H]1CO[C@@H]3c1ccc3c(c1)OCO3)OCO2 [Sesamolin] | 62.2 |  |
| C/C=C1/CN2[C@@H]3C[C@@]45c6ccccc6N[C@]4(O3)[C@@H]2C[C@@H]1[C@H]5C(=O)OC [Picrinine] | 51.7 |  |
| C[C@]12CC[C@@H]3c4ccc(O)cc4CC[C@H]3[C@@H]1CC[C@H]2O [Alpha-Estradiol] | 18.2 |  |
| CCCCCCCCCC(=O)NCc1ccc(O)c(OC)c1 [N-Vanillyldecanamide] | 0 |  |
| CC(C)=CCNc1ncnc2nc[nH]c12 [6-(γ,γ-Dimethylallylamino)purine] | 12.7 |  |

(more compounds)

SMILES	229E Inhibition rate [%]	229E Inhibition rate (229E Inhibition rate, 24 h) [%]
C[C@H]1CC[C@]2(NC1)O[C@H]1C[C@H]3[C@@H]4CC[C@H]5C[C@@H](O)CC[C@]5(C)[C@H]4CC[C@]3(C)[C@H]1[C@@H]2C [Tomatidine (hydrochloride)]		28.3
CC(C)CC1NC(=O)C(Cc2ccc(O)cc2)NC1=O (centres unmarked) [Cyclo(Tyr-Leu)]	23	
CCCCCC(=O)O[C@H](CC(=O)[O-])C[N+](C)(C)C [L-Hexanoylcarnitine]	26.2	
COc1cc2c(cc1OC)-c1cc3ccc4c(c3c(=O)n1CC2)OCO4 [8-Oxoepiberberine]	17.9	
CC(=O)O[C@H]1Cc2c(cc3oc(C)cc(=O)c3c2O)OC1(C)C [3'-O-Acetylhamaudol]	8.4	
CC1=C(CC[C@@H](C)CO[C@@H]2O[C@H](CO)[C@@H](O)[C@H](O)[C@H]2O)O[C@H]2C[C@H]3[C@@H]4CC=C5C[C@@H](O[C@@H]6O[C@H](CO)[C@@H](O[C@@H]7O[C@@H](C)[C@H](O)[C@@H](O)[C@H]7O)[C@H](O)[C@H]6O[C@@H]6O[C@@H](C)[C@H](O)[C@@H](O)[C@H]6O)CC[C@]5(C)[C@H]4CC[C@]3(C)[C@@H]12 [Pseudoprotodioscin]	11.2	
CC(C)=C[C@H]1C[C@](C)(O)[C@@H]2[C@H]3CC[C@@H]4[C@@]5(C)CC[C@H](O[C@@H]6OC[C@H](O)[C@H](O[C@@H]7O[C@H](CO[C@@H]8O[C@H](CO)[C@@H](O)[C@H](O)[C@H]8O)[C@@H](O)[C@H](O)[C@H]7O[C@@H]7OC[C@@H](O)[C@H](O)[C@H]7O)[C@H]6O[C@@H]6O[C@@H](C)[C@H](O)[C@@H](O)[C@H]6O)C(C)(C)[C@@H]5CC[C@@]4(C)[C@@]34CO[C@@]2(C4)O1 [Jujuboside A]	16.6	
COc1cc2oc(=O)ccc2c(OC)c1CC=C(C)C [Toddaculin]	16.5	
COc1cc(C)c2c(=O)c(-c3ccccc3)coc2c1 [5-Methyl-7-methoxyisoflavone]	16	
COc1cc(O)cc(O)c1C(=O)/C=C/c1ccccc1 [Cardamonin]	35.3	
CCCCCCCCCCCCCCCCCCO [1-Hydroxyoctadecane]	13.3	
CC(=O)O[C@H]1C(=O)c2c(O)cc(O)cc2O[C@@H]1c1ccccc1 [Pinobanksin 3-acetate]	0	
COc1cc2oc(-c3ccc(O)cc3)cc(=O)c2c(O)c1OC [Cirsimaritin]	24	
COc1ccc(CCC(=O)c2ccc(O)cc2)c(OC)c1 [Loureirin A]	6.1	
COc1ccc2c(OC)c3ccoc3nc2c1OC [Skimmianine]	40.9	
C1CCN2C[C@@H]3C[C@@H](CN4CCCC[C@@H]34)[C@H]2C1 [(-)-Sparteine]	13.7	
O=C(O)C(=O)O [Oxalic Acid]		12.5
CC(C(=O)c1ccc(O)cc1O)c1ccc(O)cc1 (centres unmarked) [O-Desmethylangolensin]	0	
C[C@H](C[C@H](O)[C@@H](O)C(C)(C)O)C1=C2C[C@H](O)[C@H]3[C@@]4(C)CCC(=O)C(C)(C)[C@@H]4CC[C@]3(C)[C@@]2(C)CC1 [Alisol A]	7.4	
O=c1cc(-c2ccc(O)c(-c3c(O)cc(O)c4c(=O)cc(-c5ccc(O)cc5)oc34)c2)oc2cc(O)cc(O)c12 [Amentoflavone]	8.5	
C=C(C)[C@@H]1CC[C@]2(C(=O)O)CC[C@]3(C)[C@H](CC[C@@H]4[C@@]5(C)CC[C@H](O)[C@@](C)(CO)[C@@H]5CC[C@]43C)[C@@H]12 [23-Hydroxybetulinic acid]	6.3	
C=C1CC23C[C@H]4[C@@H]5[C@@]6(C)C[C@H](OC(C)=O)C[C@]57C(N4C6)[C@@]2(O)[C@H](OC(C)=O)[C@H]1[C@@H](O)[C@H]37 [Guanfu base A]	13	
COc1ccc(/C=C/C(=O)c2c(O)cc(OC)cc2OC)cc1 [Flavokawain A]	0	
CC1(C)C[C@H]2C3=CC[C@@H]4[C@@]5(C)CC[C@H](O)[C@@](C)(CO)[C@@H]5CC[C@@]4(C)[C@]3(C)C[C@H](O)[C@@]2(CO)[C@@H](O)[C@@H]1O [Gymnemagenin]	6.8	
C[C@@H]1O[C@@H](O[C@H]2C[C@@H](O)[C@]3(CO)[C@H]4[C@H](O)C[C@]5(C)[C@@H](C6=CC(=O)OC6)CC[C@]5(O)[C@@H]4CC[C@]3(O)C2)[C@H](O)[C@H](O)[C@H]1O [Ouabain (Octahydrate)]	13.6	
